Molecules are shown by their SMILES. Some of the results follow. The main result of the screen is listed elsewhere. These columns were measured beside it and carry no call. Compounds called inactive in the main read-out are mostly missing here. The note in brackets gives the kind of curve behind each potency; many fits are weak.

For 40 molecules, AC50 results are on record in PubChem BioAssay AID445 (National Center for Advancing Translational Sciences (NCATS), 2006).

The test can be described thus: IkB Signaling. The settings on record: ABC-DLBCL IkBa-CBG/CBR dual luciferase ratio (green luciferase fused to IkBa over red control in OCI-Ly3 lymphoma cells), 4 h; measured here: control luc red channel unless noted. In outline: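 Curves were fitted separately to fusion (green), unfused (red) and ratio luminescence, then classed by r2, magnitude and activity. Cells: OCI-Ly3, 4 h compound plus doxycycline at 37C; 10 uM MG-132 defined full response.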
For `Cc1cc(C)cc(NC(=O)CSc2oc(-c3ccccc3)nc2S(=O)(=O)c2ccccc2)c1`, the AC50 is 3.98 µM [falling, full curve].

In the case of `CCOc1ccc(-c2cc(C(=O)NCc3ccccc3Cl)c3ccccc3n2)cc1`, the AC50 is 12.6 µM [rising, partial curve]. In the case of `Cc1cc(C)cc(NS(=O)(=O)c2ccc3[nH]cc(C(=O)NC4CCCCC4)c(=O)c3c2)c1`, the AC50 is 15.8 µM [falling, partial curve]. `Cc1ccc(N2CCN(C(=O)c3ccccc3F)CC2)c(C)c1`: the AC50 was 12.6 µM [falling, partial curve]. For the molecule `Cc1ccc(NC(=O)CCCn2c(=O)c3cccn3c3ccccc32)cc1C`, the concentration at half-maximal activity (AC50) was 12.6 µM [falling, partial curve, poor fit]. With `CC(C)CC(=O)n1nc(-c2cccnc2)nc1NCc1ccc(F)cc1`, the concentration at half-maximal activity (AC50) was 20 µM [falling, single point].

For `O=C(OCc1cc(=O)n2nc(C3CCCCC3)sc2n1)c1ccccc1Cl`, the AC50 is 0.794 µM [rising, full curve]. For the molecule `COCCCNC(=O)c1ccc(-n2c(-c3ccccc3)cc3c2CCCC3)cc1`, the AC50 is 10 µM [falling, partial curve].

In the case of `Cc1ccc(-c2nc(-c3ccccc3)no2)c(Cl)c1`, the AC50 was 12.6 µM [falling, partial curve]. Regarding `COc1ccccc1C(=O)N(Cc1nc(-c2ccc(Cl)cc2)no1)C(C)C`, the AC50 is 12.6 µM [falling, partial curve]. For the molecule `O=C(Cn1c(=O)n(-c2cccc(Cl)c2)c(=O)c2sc3ccccc3c21)NC1CCCCC1`, the AC50 was 20 µM [falling, single point]. For `Cc1ccc(OCC(=O)Nc2cccc(-c3nc4ccccc4o3)c2C)cc1C`, the concentration at half-maximal activity (AC50) is 31.6 µM [falling, partial curve].

On to `CN(C)C(CNc1nnnn1-c1ccccc1)c1ccco1` (stereo not given), for which the concentration at half-maximal activity (AC50) is 25.1 µM [rising, single point] [measured here: IkB-luc green channel]. Consider `CCN(CC)S(=O)(=O)c1ccc2c(c1)nc(CCC(=O)OCC(=O)N1CCc3ccccc31)n2C`, for which the AC50 is 15.8 µM [falling, partial curve]. Turning to `O=C(Nc1ccc(S(=O)(=O)Nc2cnc3ccccc3n2)cc1)c1ccc(Br)o1`, the AC50 was 12.6 µM [falling, partial curve]. The same measure for `COc1ccccc1NC(=O)c1c(NC(=O)COc2ccccc2)sc2c1CCCCC2`: 20 µM [falling, partial curve]; for `O=C(CSCc1ccc(F)cc1)N1CCN(c2ccc(Cl)cc2)CC1`: 31.6 µM [falling, single point]. For `Cc1cc(C)n2nc(SCC3COc4ccccc4O3)nc2n1` (stereo not given), the AC50 is 3.98 µM [rising, full curve, poor fit].

As to `Clc1ccc(CN2CCC(CNc3ncnc4onc(-c5ccc(Cl)cc5)c34)CC2)cc1`, the AC50 was 20 µM [falling, partial curve]. Consider `Fc1ccc(NCc2nnc(SCc3nnc(-c4ccccc4)o3)n2Cc2ccccc2)cc1`, for which the AC50 is 25.1 µM [falling, partial curve]. `COc1cc(OC)c(OC)cc1/C=C/c1nc2cc3ccccc3cc2c(=O)n1-c1ccc(F)c(Cl)c1`: the AC50 was 31.6 µM [falling, partial curve]. `O=C(OC1CCOC1=O)c1ccc(-c2nc3ccccc3s2)s1` (stereo not given): the half-maximal activity concentration (AC50) was 12.6 µM [falling, partial curve]. For `CCC(=O)NC1(C(F)(F)F)C(=O)NC(C)=C1C#N` (stereo not given), the AC50 is 12.6 µM [falling, partial curve]. Take `O=C(c1ccc2c(c1)N(Cc1ccccc1F)C(=O)c1ccccc1S2(=O)=O)N1CCN(c2ccccc2F)CC1`: the AC50 is 1.26 µM [falling, partial curve]. With `CCN(CC)C(=O)c1sc2c(c1C)c(=O)n(CCc1ccccc1)c(=O)n2Cc1ccc(F)cc1Cl` the figure was 7.94 µM [falling, partial curve]; with `O=C1OCCC1Sc1nnc(-c2ccc(Br)cc2)o1` (stereo not given), 1.58 µM [falling, full curve]. The same measure for `O=C(CCC1N=C2c3ccccc3N=C(SCc3cccc(Cl)c3)N2C1=O)N1CCN(c2ccccc2)CC1` (stereo not given): 39.8 µM [falling, single point].

With `O=C(OCC(=O)N1CCN(c2ccccc2)CC1)c1ccc2ncsc2c1`, the AC50 was 25.1 µM [falling, partial curve].

As for `COc1cc2[nH]c(=O)n(CCC(=O)N3CCN(c4ccc(Cl)cc4)CC3)c(=O)c2cc1OC`, the AC50 was 3.98 µM [falling, partial curve].

In the case of `CCn1nc(-c2ccccc2)c(-c2ccccc2)c(C(=O)Nc2ccccc2C#N)c1=O`, the concentration at half-maximal activity (AC50) is 25.1 µM [falling, partial curve]. `CCOC(=O)CSC1=C(C#N)C(c2ccco2)C(C(=O)OCc2ccccc2)=C(C)N1` (stereo not given): the AC50 is 25.1 µM [falling, partial curve]. With `O=C1Oc2ccccc2C(=O)/C1=C\N1C(=O)N/C(=C\c2ccccc2O)C1=O`, the AC50 was 0.794 µM [falling, partial curve].

With `CCOc1ccc(N(CC(=O)Nc2ccccc2CC)S(=O)(=O)c2c(C)noc2C)cc1`, the AC50 was 5.01 µM [rising, full curve]. With `COc1ccc(NC(=O)c2c(NC(=O)c3ccncc3)sc3c2CCC(C(C)(C)C)C3)cc1` (stereo not given) the figure was 5.01 µM [falling, full curve].

`Cc1cccc(NC(=O)CSc2nc3ccccc3nc2N2CCCCC2)c1C`: the AC50 is 15.8 µM [falling, partial curve].

As for `COc1cc(NC(=O)C(Cc2ccccc2)NS(=O)(=O)c2cccc3nsnc23)cc(OC)c1` (stereo not given), the AC50 is 7.94 µM [falling, full curve]. For `O=C(Cn1ccn(-c2ccc(F)c(F)c2)c(=O)c1=O)NCCc1ccccc1`, the AC50 was 25.1 µM [rising, partial curve, poor fit]. For `CC(=O)c1cccc(NC(=O)CCc2c(C)nc3c(c(C)nn3-c3ccccc3)c2C)c1`, the half-maximal activity concentration (AC50) was 10 µM [falling, partial curve].

As for `CCCCNc1nc(Oc2ccc(=O)n(C)n2)nc(N2CCOCC2)n1`, the AC50 was 10 µM [falling, partial curve].

Take `CCC(CC)C(=O)Nc1ccc2nc(SCC(=O)N3CCc4ccccc43)sc2c1`: the half-maximal activity concentration (AC50) was 3.98 µM [falling, full curve].
